What was measured:
[1] = system: stationary phase B. burgdorferi persisters (strain B31); assay: NCI compound library screen, SYBR Green I/PI assay (plate reader); settings: 50 μM, seven day old stationary phase culture, 7 days
[2] = system: stationary phase B. burgdorferi persisters (strain B31); assay: NCI compound library rescreen, epifluorescence microscope counting

## CCN(CC)c1ccc2cc3ccc(=[N+](CC)CC)cc-3oc2c1.[Cl-] [NSC44690, Pyronin B]
[1]
  Residual viable cells (SYBR Green I/PI assay): 0%
[2]; 50 μM, seven day old stationary phase culture, 7 days
  Residual viable cells (epifluorescence microscope counting): 19%
[2]; stationary phase persisters
  Activity against persisters (residual viable cell percentage): 19%

— US20170058314A1, “NOVEL METHODOLOGY FOR IDENTIFYING ANTI-PERSISTER ACTIVITY AND ANTIMICROBIAL SUSCEPTIBILITY FOR BORRELIA BURGDORFERI AND OTHER BACTERIA” (priority 2014, published 2017)
